Positions count from the first letter of the chain named. These are yes or no findings as the source states them, for the method shown. Some results given as binding are weak or reduced against the parent protein; the word gives no strength.

For test [1], the target named is Cynomolgus TNFR2 (cynomolgus (M. fascicularis)). Put plainly: flow cytometry on stimulated cynomolgus CD4+ T cells, % TNFR2+ over isotype.
In test [2] the target is T1, wild type, full length murine TNFR2 (mouse) (UniProt P25119).
T1 sequence (looked up): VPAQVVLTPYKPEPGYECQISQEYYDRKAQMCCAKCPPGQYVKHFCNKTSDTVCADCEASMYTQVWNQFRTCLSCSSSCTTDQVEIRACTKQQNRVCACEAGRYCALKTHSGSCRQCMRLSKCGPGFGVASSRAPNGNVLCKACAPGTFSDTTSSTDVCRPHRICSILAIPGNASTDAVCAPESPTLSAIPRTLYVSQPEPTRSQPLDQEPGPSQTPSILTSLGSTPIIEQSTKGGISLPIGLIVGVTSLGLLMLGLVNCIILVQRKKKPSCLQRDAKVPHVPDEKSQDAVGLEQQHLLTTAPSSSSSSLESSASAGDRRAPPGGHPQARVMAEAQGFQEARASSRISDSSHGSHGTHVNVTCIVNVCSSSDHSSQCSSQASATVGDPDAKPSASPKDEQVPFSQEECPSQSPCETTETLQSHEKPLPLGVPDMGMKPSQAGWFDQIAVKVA
Put plainly: flow cytometry on activated mouse CD4+ T cells, suboptimal mAb concentration. For orientation: In flow cytometry, cells or beads pass a laser one at a time.

Test [3] addresses T1, wild type, full length murine TNFR2 (mouse). Put plainly: flow cytometry on activated mouse CD4+ T cells, MFI minus isotype [cont. E].
For test [4] the target is unchanged. Put plainly: flow cytometry, activated mouse CD4+ T cells.

B1: 001-B05 (antibody, V domains shown)
VH: EVQLLESGGGLVQPGGSLRLSCAASGFTFSNAWMSWVRQAPGKGLEWVSSISSASGYIYYGDSVKGRFTISRDNSKNTLYLQMNNLRAEDTAVYYCARGTLYGDFDEFWGQGTLVTVSS
VL: QSVLTQPPSASGTPGQRVTISCSGSSSNIGNNAVNWYQQLPGTAPKLLIYGNTNRPSGVPDRFSGSKSGTSASLAISGLRSEDEADYYCQSYDSSLSGYVVFGGGTKLTVLG
For the molecule B1, the binding result in test [1] is “binds”.

B2: 001-C05 (antibody, V domains shown)
VH: EVQLLESGGGLVQPGGSLRLSCAASGFTFSSNEMSWIRQAPGKGLEWVSVIYSGGSTYYADSVKGRFTISRDNSKNTLYLQMNSLRAEDTAVYYCARREGWLVPFDYWGQGTLVTVSS
VL: B1 VL with N31S, A33T, T53I, N54I, Y92F, S94T, S95T, Y99S, V100I
As for B2, in test [1], the binding result is recorded as “binds”.

B3: 001-F02 (antibody, V domains shown)
VH: EVQLLESGGGLVQPGGSLRLSCAASGFTFSDYYMSWVRQAPGKGLEWVANINTDGSEKYYLDSVKGRFTISRDNSKNTLYLQMNSLRAEDTAVYYCAREEYGAFDIWGQGTLVTVSS
VL: B1 VL with N31S, A33T, G51D, T53N, N54K, Y92F, S94R, S95G, Y99S, V100I
With B3, the binding result in test [1] is recorded as “binds”.

B4: 001-B09 (antibody, V domains shown)
VH: EVQLLESGGGLVQPGGSLRLSCAASGFTFSRHAMNWVRQAPGKGLEWVSSISTGSSYIDYADSVKGRFTISRDNSKNTLYLQMNSLRAEDTAVYYCAREKGHYYYGMDVWGQGTLVTVSS
VL: QSVLTQPPSASGTPGQRVTISCTGSSSNIGAGYDVHWYQQLPGTAPKLLIYGNSYRPSGVPDRFSGSKSGTSASLAISGLRSEDEADYYCQSYDTSLSAYVVFGGGTKLTVLG
On to B4, for which, in test [1], the binding result was “binds”.

B5: 001-C03 (antibody, V domains shown)
VH: EVQLLESGGGLVQPGGSLRLSCAASGFTFSNAWMSWVRQAPGKGLEWVSAISVSGINTYYADSVKGRFTISRDNSKNTLYLQMNSLRAEDTAVYYCARDTGSLGVDYWGQGTLVTVSS
VL: QSVLTQPPSASGTPGQRVTISCSGSSSNIGSNTVNWYQQLPGTAPKLLIYRNNQRPSGVPDRFSGSKSGTSASLAISGLRSEDEADYYCQSYDSSLSISVFGGGTKLTVLG
For B5, the binding entry in test [1] is on record as “binds”.

B6: 001-A09 (antibody, V domains shown)
VH: EVQLLESGGGLVQPGGSLRLSCAASGFTFSSNYMSWVRQAPGKGLEWVSVISGSGGSTYYADSVKGRFTISRDNSKNTLYLQMNSLRAEDTAVYYCARDRGWFDPWGQGTLVTVSS
VL: QSVLTQPPSASGTPGQRVTISCSGSRSNIDNSYVSWYQQLPGTAPKLLIYRNNQRPSGVPDRFSGSKSGTSASLAISGLRSEDEADYYCATWDDSLSGPVFGGGTKLTVLG
Take B6: the binding entry in test [1] was “binds”.

B7: 005-A05 (antibody, V domains shown)
VH: EVQLLESGGGLVQPGGSLRLSCAASGFTFSSYAMSWVRQAPGKGLEWVSTIIGSGANTWYADSVKGRFTISRDNSKNTLYLQMNSLRAEDTAVYYCARHEGYYYYGMDVWGQGTLVTVSS
VL: QSVLTQPPSASGTPGQRVTISCTGSSSNIGAGYVVHWYQQLPGTAPKLLIYGNSNRPSGVPDRFSGSKSGTSASLAISGLRSEDEADYYCAAWDDSLNGRVFGGGTKLTVLG
B7: the binding result in test [2], in test [3] and in test [4] was “binds” throughout.

B8: 001-H10 (antibody, V domains shown)
VH: EVQLLESGGGLVQPGGSLRLSCAASGFTFDDYGMSWVRQAPGKGLEWVSVIYSGGSTYYADSVKGRFTISRDNSKNTLYLQMNSLRAEDTAVYYCARDRSSSWYRDGMDVWGQGTLVTVSS
VL: B7 VL with V34D, N98S, R100W
With B8, in test [1], the binding result is “binds”.

B9: 001-F06 (antibody, V domains shown)
VH: EVQLLESGGGLVQPGGSLRLSCAASGFTFSSYAMHWVRQAPGKGLEWVSAISGGATTTYYADSVKGRFTISRDNSKNTLYLQMNSLRAEDTAVYYCAKGGTGDPYYFDYWGQGTLVTVSS
VL: B7 VL with V34D, G52R, S54N, N55Q, W93R, S96G, N98S, R100P
As to B9, the binding entry in test [1] was “binds”.

B10: 004-E08 (antibody, V domains shown)
VH: EVQLLESGGGLVQPGGSLRLSCAASGFTFSRYWMHWVRQVPGKGLEWVSGISDSGVVTYYADSVKGRFTISRDNSKNTLYLQMNSLRAEDTAVYYCARAQSVAFDIWGQGTLVTVSS
VL: B7 VL with T23S, Y33H, V34D, G52Y, N53D, S54D, N55L, R56L, N98S, R100W
Regarding B10, in test [1], the binding entry is reported as “binds”.

B11: 001-E06 (antibody, V domains shown)
VH: EVQLLESGGGLVQPGGSLRLSCAASGFTFSSNYMSWVRQAPGKGLEWVALIWYDGSNKYYADSVKGRFTISRDNSKNTLYLQMNSLRAEDTAVYYCAKDPLFDSWGQGTLVTVSS
VL: B7 VL with S25R, V34D, G52D, S54N, N55K, R100P
For B11, in test [1], the binding result is “binds”.

B12: 005-B02 (antibody, V domains shown)
VH: EVQLLESGGGLVQPGGSLRLSCAASGFTFSDYYMSWIRQAPGKGLEWVALIWYDGGNEYYADSVKGRFTISRDNSKNTLYLQMNSLRAEDTAVYYCVRETGNYGMDVWGQGTLVTVSS
VL: B7 VL with V34D, G52R, S54N, N55Q, A92T, S96R, L97V, R100P
B12: the binding entry in test [1] is “binds”.

B13: 001-G10 (antibody, V domains shown)
VH: EVQLLESGGGLVQPGGSLRLSCAASGFTFSAYGMHWVRQAPGKGLEWVAVVSYDGREKHYADSVKGRFTISRDNSKNTLYLQMNSLRAEDTAVYYCARSDGGYDSDSGYYWGQGTLVTVSS
VL: QSVLTQPPSASGTPGQRVTISCSGSTSNIGSNFVYWYQQLPGTAPKLLIYDNNKRPSGVPDRFSGSKSGTSASLAISGLRSEDEADYYCSSYAYSDNILFGGGTKLTVLG
Regarding B13, in test [1], the binding result is reported as “binds”.
